Source: publication PMC7803464
These are yes or no findings as the source states them, for the method shown. Binding seen in cells or lysates may run through a third protein. Where a sequence is shown, tags or fusion partners need not be part of it.

Chains of the proteins cited; added tags and fusions are not shown.
UniProt P53350: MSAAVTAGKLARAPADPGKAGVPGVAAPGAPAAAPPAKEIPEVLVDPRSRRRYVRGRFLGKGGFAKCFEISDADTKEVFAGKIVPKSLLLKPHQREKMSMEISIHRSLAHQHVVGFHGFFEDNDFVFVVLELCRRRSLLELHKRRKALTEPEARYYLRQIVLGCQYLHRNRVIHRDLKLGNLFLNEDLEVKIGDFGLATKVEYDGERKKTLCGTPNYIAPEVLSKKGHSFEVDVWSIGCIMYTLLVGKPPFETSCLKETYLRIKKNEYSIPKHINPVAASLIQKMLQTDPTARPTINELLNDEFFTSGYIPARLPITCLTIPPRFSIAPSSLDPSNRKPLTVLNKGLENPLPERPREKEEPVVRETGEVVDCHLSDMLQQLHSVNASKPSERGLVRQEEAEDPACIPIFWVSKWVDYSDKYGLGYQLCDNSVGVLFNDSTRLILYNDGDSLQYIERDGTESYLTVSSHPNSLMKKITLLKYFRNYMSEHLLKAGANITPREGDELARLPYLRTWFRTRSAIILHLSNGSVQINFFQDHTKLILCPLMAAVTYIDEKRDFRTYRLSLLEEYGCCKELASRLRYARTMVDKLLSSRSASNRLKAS

Molecular target: T1, Flag–astrin S110A/T111A (UniProt Q96R06)
T1 sequence: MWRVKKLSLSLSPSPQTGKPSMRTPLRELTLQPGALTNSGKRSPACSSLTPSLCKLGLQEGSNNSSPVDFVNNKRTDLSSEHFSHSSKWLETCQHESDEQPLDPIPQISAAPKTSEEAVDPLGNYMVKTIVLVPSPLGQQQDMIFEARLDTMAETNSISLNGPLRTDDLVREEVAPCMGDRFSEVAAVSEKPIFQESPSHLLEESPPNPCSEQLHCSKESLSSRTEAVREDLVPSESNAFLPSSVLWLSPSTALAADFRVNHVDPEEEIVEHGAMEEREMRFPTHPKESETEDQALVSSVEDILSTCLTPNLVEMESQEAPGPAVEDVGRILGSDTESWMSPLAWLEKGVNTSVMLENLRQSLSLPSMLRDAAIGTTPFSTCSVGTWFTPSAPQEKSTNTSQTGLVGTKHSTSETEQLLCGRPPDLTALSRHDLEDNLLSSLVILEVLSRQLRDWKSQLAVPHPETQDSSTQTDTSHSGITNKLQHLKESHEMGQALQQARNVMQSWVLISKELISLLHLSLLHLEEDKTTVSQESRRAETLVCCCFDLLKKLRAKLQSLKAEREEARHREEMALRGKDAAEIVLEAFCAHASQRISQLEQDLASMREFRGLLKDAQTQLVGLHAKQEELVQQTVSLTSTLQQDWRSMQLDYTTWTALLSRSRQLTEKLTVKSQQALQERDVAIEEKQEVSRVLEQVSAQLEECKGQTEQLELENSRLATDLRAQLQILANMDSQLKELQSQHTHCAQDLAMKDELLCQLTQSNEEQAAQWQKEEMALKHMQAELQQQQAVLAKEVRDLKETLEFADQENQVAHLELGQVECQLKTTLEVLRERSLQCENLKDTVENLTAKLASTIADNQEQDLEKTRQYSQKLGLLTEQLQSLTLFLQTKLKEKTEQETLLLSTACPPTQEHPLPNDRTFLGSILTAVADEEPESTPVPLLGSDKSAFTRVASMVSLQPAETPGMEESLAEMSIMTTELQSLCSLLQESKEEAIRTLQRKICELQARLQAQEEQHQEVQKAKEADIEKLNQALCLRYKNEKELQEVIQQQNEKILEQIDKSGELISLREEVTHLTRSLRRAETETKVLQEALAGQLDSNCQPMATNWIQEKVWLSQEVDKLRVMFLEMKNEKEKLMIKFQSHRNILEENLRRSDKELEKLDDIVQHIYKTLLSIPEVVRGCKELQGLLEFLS
Test: co-IP; Flag-astrin constructs transiently transfected into HEK293T cells, arrested with 10 µM STLC for 14 h, mitotic shake-off, lysis in 50 mM Tris-HCl pH 8.0, 150 mM NaCl, 1% IGEPAL; FLAG-agarose beads; blot for Plk1 (Fig. 1F)

binding: no binding
Substance: Polo-like kinase 1 (from UniProt P53350 1-603) (enzyme)
